{"source": "the supplement of paper PMC9578143", "about": "“Small-Molecule Ebselen Binds to YTHDF Proteins Interfering with the Recognition of N^6-Methyladenosine-Modified RNAs” (ACS Pharmacology & Translational Science, 2022)", "note": "Some of the results follow. Part of the spread comes from offsets between plates or batches.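 Hits were defined as a z-score below −3.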", "data": [{"biological_target": "T1, YTHDF1 YTH domain (aa 365-554) (UniProt Q9BYJ9)", "T1 sequence (whole entry)": "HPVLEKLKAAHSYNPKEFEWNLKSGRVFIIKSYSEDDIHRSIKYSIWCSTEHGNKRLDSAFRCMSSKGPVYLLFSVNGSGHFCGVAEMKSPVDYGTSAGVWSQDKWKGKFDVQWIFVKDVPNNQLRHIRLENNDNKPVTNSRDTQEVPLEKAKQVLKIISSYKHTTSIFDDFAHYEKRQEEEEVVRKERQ", "assay": "tryptophan fluorescence intensity z-score (mean); higher = higher fluorescence, less quenching (negative = binding / quenching)", "settings": "10 µM", "values": [{"smiles": "CC(C)=CCOc1c2occc2cc2ccc(=O)oc12", "note": "(plate: M 15-16)", "tryptophan fluorescence intensity z-score": "inactive: 0.67"}, {"smiles": "CC1=CC(=O)c2c(O)cccc2C1=O", "note": "(plate: M 19-20)", "tryptophan fluorescence intensity z-score": "inactive: 0.256"}, {"smiles": "O=C1CN=C(c2ccccc2Cl)c2cc([N+](=O)[O-])ccc2N1", "note": "(plate: M 11-12)", "tryptophan fluorescence intensity z-score": "inactive: -0.307"}, {"smiles": "CN1[C@@H]2CC[C@H]1C[C@@H](OC(=O)[C@H](CO)c1ccccc1)C2", "note": "(plate: M 3-4)", "tryptophan fluorescence intensity z-score": "inactive: 0.37"}, {"smiles": "CC(=O)O[C@H]1C[C@@H](OC(C)=O)C(C)(C)C2C[C@@H](OC(C)=O)[C@]3(C)C(CC[C@@]4(C)[C@H](c5ccoc5)C(=O)[C@H]5O[C@]543)[C@]21C", "note": "(some centres not stated) (plate: M 13-14)", "tryptophan fluorescence intensity z-score": "inactive: 0.337"}, {"smiles": "C=C(C)[C@H]1CN[C@H](C(=O)O)[C@H]1CC(=O)O", "note": "(plate: M 21-22)", "tryptophan fluorescence intensity z-score": "inactive: -0.419"}, {"smiles": "C[C@@H]1CC[C@@]2(OC1)O[C@H]1[C@@H](O)[C@H]3[C@@H]4CC[C@H]5C[C@@H](O[C@@H]6O[C@H](CO)[C@H](O[C@@H]7O[C@H](CO)[C@@H](O)[C@H](O[C@@H]8OC[C@@H](O)[C@H](O)[C@H]8O)[C@H]7O[C@@H]7O[C@H](CO)[C@H](O)[C@H](O[C@@H]8O[C@H](CO)[C@@H](O)[C@H](O)[C@H]8O)[C@H]7O)[C@H](O)[C@H]6O)[C@H](O)C[C@]5(C)[C@H]4CC[C@]3(C)[C@H]1[C@@H]2C", "note": "(plate: M 21-22)", "tryptophan fluorescence intensity z-score": "inactive: 0.364"}, {"smiles": "Cc1cc(O)ccc1Cl", "note": "(plate: M 1-2)", "tryptophan fluorescence intensity z-score": "inactive: 0.0374"}, {"smiles": "C=C[C@H]1CN2CC[C@H]1C[C@H]2[C@H](OC(=O)OCC)c1ccnc2ccc(OC)cc12", "note": "(plate: M 1-2)", "tryptophan fluorescence intensity z-score": "inactive: 0.259"}, {"smiles": "Nc1ncn[nH]1", "note": "(plate: M 23-24)", "tryptophan fluorescence intensity z-score": "inactive: 0.584"}, {"smiles": "CCCCC[C@H]1C(=O)O[C@H](C)[C@H](NC(=O)c2cccc(NC=O)c2O)C(=O)O[C@@H](C)[C@@H]1OC(=O)CC(C)C", "note": "[ANTIMYCINA(A1shown)] (plate: M 19-20)", "tryptophan fluorescence intensity z-score": "inactive: 0.365"}, {"smiles": "CC[C@H]1CN2CC[C@H]1C[C@@H]2[C@@H](O)c1ccnc2ccc(OC)cc12", "note": "(plate: M 21-22)", "tryptophan fluorescence intensity z-score": "inactive: 0.319"}, {"smiles": "CC(C)=CCCC1(C)C=Cc2c(O)c3c(c(CC=C(C)C)c2O1)OC12C(CC4CC1C(C)(C)OC2(C/C=C(/C)C(=O)O)C4O)C3=O", "note": "(configuration not stated) (plate: M 15-16)", "tryptophan fluorescence intensity z-score": "inactive: -1.54"}, {"smiles": "N.N.[Cl][Pt][Cl]", "note": "(plate: M 7-8)", "tryptophan fluorescence intensity z-score": "inactive: -0.438"}, {"smiles": "CCCN1C[C@H](CSC)C[C@@H]2c3cccc4[nH]cc(c34)C[C@H]21", "note": "(plate: M 9-10)", "tryptophan fluorescence intensity z-score": "inactive: 1.5"}, {"smiles": "CC(=O)Oc1ccc(/C=C/c2cc(OC(C)=O)cc(OC(C)=O)c2)cc1", "note": "(plate: M 19-20)", "tryptophan fluorescence intensity z-score": "inactive: 0.498"}, {"smiles": "N#C/C(=C\\c1ccc(O)cc1)C(=O)O", "note": "[alpha-CYANO-4-HYDROXYCINNAMICACID] (plate: M 23-24)", "tryptophan fluorescence intensity z-score": "inactive: -0.26"}, {"smiles": "CC1=C(O)C(=O)C=C2C1=CC=C1[C@@]2(C)CC[C@@]2(C)[C@@H]3C[C@](C)(C(=O)O)CC[C@]3(C)CC[C@]12C", "note": "(plate: M 15-16)", "tryptophan fluorescence intensity z-score": "inactive: 0.156"}, {"smiles": "Oc1cccc2cccnc12", "note": "(plate: M 3-4)", "tryptophan fluorescence intensity z-score": "inactive: 0.0016"}, {"smiles": "Cc1ncc(CNC(=O)N(CCCl)N=O)c(N)n1", "note": "(plate: M 23-24)", "tryptophan fluorescence intensity z-score": "inactive: 0.0577"}, {"smiles": "CCC12C=CCN3CC[C@@]4(c5ccc(OC)cc5N(C)[C@H]4[C@@](O)(C(=O)OC)[C@@H]1OC(C)=O)[C@@H]32", "note": "(some centres not stated) (plate: M 19-20)", "tryptophan fluorescence intensity z-score": "inactive: 0.589"}, {"smiles": "CN1CCCCC1c1ccc(-c2cccnc2)nc1", "note": "(configuration not stated) (plate: M 19-20)", "tryptophan fluorescence intensity z-score": "inactive: 0.467"}, {"smiles": "CCCCCCCCCc1ccc(O)cc1", "note": "(plate: M 21-22)", "tryptophan fluorescence intensity z-score": "inactive: 0.371"}, {"smiles": "CNc1ccc(C(=O)CC(O)CCC(C)C2OC(=O)CC(O)CC(=O)CC(O)CC(O)CC(O)CC(O)CC3(O)CC(O)C(C(=O)OC)C(CC(O[C@@H]4O[C@H](C)[C@@H](O)[C@H](N)[C@@H]4O)/C=C/C=C/C=C/C=C/C=C/C=C/C=C/C2C)O3)cc1.COC(=O)C1C(O)CC2(O)CC(O)CC(O)CC(O)CC(O)CC(=O)CC(O)CC(=O)OC(C(C)CCC(O)CC(=O)c3ccc(N)cc3)C(C)/C=C/C=C/C=C/C=C/C=C/C=C/C=C/C(O[C@@H]3O[C@H](C)[C@@H](O)[C@H](N)[C@@H]3O)CC1O2", "note": "(some centres not stated) (plate: M 13-14)", "tryptophan fluorescence intensity z-score": "inactive: 0.309"}, {"smiles": "CC[C@@]1(O)C(=O)OCc2c1cc1n(c2=O)Cc2cc3ccccc3nc2-1", "note": "(plate: M 19-20)", "tryptophan fluorescence intensity z-score": "inactive: 0.181"}, {"smiles": "O=C1C[C@@H]2OCC=C3CN4CC[C@]56c7ccccc7N1[C@H]5[C@H]2[C@H]3C[C@H]46", "note": "(plate: M 5-6)", "tryptophan fluorescence intensity z-score": "inactive: -0.183"}, {"smiles": "N#Cc1nn(-c2c(Cl)cc(C(F)(F)F)cc2Cl)c(N)c1[S+]([O-])C(F)(F)F", "note": "(configuration not stated) (plate: M 11-12)", "tryptophan fluorescence intensity z-score": "inactive: -0.742"}, {"smiles": "NCCc1cc(O)c(O)cc1O", "note": "(plate: M 3-4)", "tryptophan fluorescence intensity z-score": "inactive: -0.72"}, {"smiles": "CC(C)=CCC[C@]1(C)C=Cc2c(O)c3c(c(CC=C(C)C)c2O1)O[C@]12C(=C[C@@H]4C[C@H]1C(C)(C)O[C@@]2(C/C=C(/C)C(=O)O)C4=O)C3=O", "note": "(plate: M 15-16)", "tryptophan fluorescence intensity z-score": "inactive: -1.35"}, {"smiles": "C#CCOS(=O)OC1CCCCC1Oc1ccc(C(C)(C)C)cc1", "note": "(configuration not stated) (plate: M 21-22)", "tryptophan fluorescence intensity z-score": "inactive: 0.335"}, {"smiles": "C=C(C)c1cc2cc(C(C)=O)c(O)cc2o1", "note": "(plate: M 17-18)", "tryptophan fluorescence intensity z-score": "inactive: 0.43"}, {"smiles": "Cc1cc(OC(=O)N2CCCCC2)c(C(C)C)cc1[N+](C)(C)C", "note": "(plate: M 23-24)", "tryptophan fluorescence intensity z-score": "inactive: -0.241"}, {"smiles": "c1ccc2nc(N3CCNCC3)ccc2c1", "note": "(plate: M 9-10)", "tryptophan fluorescence intensity z-score": "inactive: -0.0769"}, {"smiles": "C[N+](C)(C)CCCCCCCCCC[N+](C)(C)C", "note": "(plate: M 13-14)", "tryptophan fluorescence intensity z-score": "inactive: 0.642"}, {"smiles": "C[N+]1(C)[C@@H]2CC[C@H]1C[C@@H](OC(=O)C(CO)c1ccccc1)C2", "note": "(some centres not stated) (plate: M 11-12)", "tryptophan fluorescence intensity z-score": "inactive: 0.6"}, {"smiles": "C[C@H]1CC[C@@]2(NC1)O[C@H]1C[C@H]3[C@@H]4CC[C@H]5C[C@@H](O)CC[C@]5(C)[C@H]4CC[C@]3(C)[C@H]1[C@@H]2C", "note": "(plate: M 13-14)", "tryptophan fluorescence intensity z-score": "inactive: 0.621"}, {"smiles": "CN1C[C@H](C(=O)N[C@]2(C)O[C@@]3(O)[C@@H]4CCCN4C(=O)[C@H](Cc4ccccc4)N3C2=O)C[C@@H]2c3cccc4[nH]cc(c34)C[C@H]21", "note": "(plate: M 1-2)", "tryptophan fluorescence intensity z-score": "inactive: -0.159"}, {"smiles": "COc1cccc(C2(O)CCCCC2CN(C)C)c1", "note": "(configuration not stated) (plate: M 11-12)", "tryptophan fluorescence intensity z-score": "inactive: -0.242"}, {"smiles": "CC(CCc1ccccc1)NC(C)C(O)c1ccc(O)cc1", "note": "(configuration not stated) (plate: M 3-4)", "tryptophan fluorescence intensity z-score": "inactive: 0.0946"}, {"smiles": "O=c1ccc2c(O)c3ccoc3cc2o1", "note": "(plate: M 19-20)", "tryptophan fluorescence intensity z-score": "inactive: -0.189"}, {"smiles": "C/C=C(/C)C(=O)O[C@H]1CC[C@@]2(C)[C@@H]3CC[C@H]4[C@]5(O)C[C@H](O)[C@@]6(O)[C@@H](CN7C[C@@H](C)CC[C@H]7[C@@]6(C)O)[C@]5(O)C[C@@]42O[C@]13O", "note": "(plate: M 19-20)", "tryptophan fluorescence intensity z-score": "inactive: 0.0528"}, {"smiles": "CCCC(C)C1(CC)C(=O)NC(=S)NC1=O", "note": "(configuration not stated) (plate: M 13-14)", "tryptophan fluorescence intensity z-score": "inactive: 0.146"}, {"smiles": "COc1cc([C@@H]2c3cc4c(cc3[C@H](O)[C@H]3COC(=O)[C@@H]23)OCO4)cc(OC)c1OC", "note": "(plate: M 23-24)", "tryptophan fluorescence intensity z-score": "inactive: 0.554"}, {"smiles": "O=C1C=C2C=C[C@@H]3C[C@@]2(O1)[C@H]1CCCCN31", "note": "(plate: M 19-20)", "tryptophan fluorescence intensity z-score": "inactive: 0.258"}, {"smiles": "CC(C)=CC1C(C(=O)OCc2cccc(Oc3ccccc3)c2)C1(C)C", "note": "(configuration not stated) (plate: M 23-24)", "tryptophan fluorescence intensity z-score": "inactive: 0.628"}, {"smiles": "C[CH2][Hg][S]c1ccccc1C(=O)[O-].[Na+]", "note": "(plate: M 5-6)", "tryptophan fluorescence intensity z-score": "inactive: -1.38"}, {"smiles": "CC1(C)C(=O)C=C[C@]2(C)[C@H]3CC[C@@]4(C)[C@H](c5ccoc5)OC(=O)[C@H]5O[C@]54[C@]3(C)[C@H](O)C[C@@H]12", "note": "(plate: M 13-14)", "tryptophan fluorescence intensity z-score": "inactive: 0.54"}, {"smiles": "CC[C@H](C)[C@H]1O[C@]2(C=C[C@@H]1C)C[C@@H]1C[C@@H](C/C=C(\\C)[C@@H](O[C@H]3C[C@H](OC)[C@@H](O[C@H]4C[C@H](OC)[C@@H](O)[C@H](C)O4)[C@H](C)O3)[C@@H](C)/C=C/C=C3\\CO[C@@H]4[C@H](O)C(C)=C[C@@H](C(=O)O1)[C@]34O)O2.CO[C@H]1C[C@H](O[C@H]2[C@H](C)O[C@@H](O[C@@H]3/C(C)=C/C[C@@H]4C[C@@H](C[C@]5(C=C[C@H](C)[C@@H](C(C)C)O5)O4)OC(=O)[C@@H]4C=C(C)[C@@H](O)[C@H]5OC/C(=C\\C=C\\[C@@H]3C)[C@]54O)C[C@@H]2OC)O[C@@H](C)[C@@H]1O", "note": "(plate: M 7-8)", "tryptophan fluorescence intensity z-score": "inactive: -0.136"}, {"smiles": "Nc1ccncc1", "note": "(plate: M 7-8)", "tryptophan fluorescence intensity z-score": "inactive: 0.383"}, {"smiles": "COC(=O)[C@@H]1C[C@H](OC(C)=O)C(=O)[C@H]2[C@@]1(C)CC[C@H]1C(=O)O[C@H](c3ccoc3)C[C@]21C", "note": "(plate: M 19-20)", "tryptophan fluorescence intensity z-score": "inactive: 0.411"}, {"smiles": "CC[C@@]1(O)C[C@H](O)c2c(cc3c(c2O)C(=O)c2c(O)ccc(O)c2C3=O)[C@H]1C(=O)OC", "note": "(plate: M 15-16)", "tryptophan fluorescence intensity z-score": "inactive: 0.521"}, {"smiles": "O=C(O)CCCc1ccc(N(CCCl)CCCl)cc1", "note": "(plate: M 1-2)", "tryptophan fluorescence intensity z-score": "inactive: 0.317"}]}]}
